Paper PMC5399554
Results are given in words; binding and its absence hold for the method and conditions named. In cells and extracts the contact can be indirect. Some entries that bind do so weakly or less than the wild type.

Protein sequences, listed by entry. Tags and fused reporters are not part of them. Residues count along the entry.
UniProt P38647, residues 47-679: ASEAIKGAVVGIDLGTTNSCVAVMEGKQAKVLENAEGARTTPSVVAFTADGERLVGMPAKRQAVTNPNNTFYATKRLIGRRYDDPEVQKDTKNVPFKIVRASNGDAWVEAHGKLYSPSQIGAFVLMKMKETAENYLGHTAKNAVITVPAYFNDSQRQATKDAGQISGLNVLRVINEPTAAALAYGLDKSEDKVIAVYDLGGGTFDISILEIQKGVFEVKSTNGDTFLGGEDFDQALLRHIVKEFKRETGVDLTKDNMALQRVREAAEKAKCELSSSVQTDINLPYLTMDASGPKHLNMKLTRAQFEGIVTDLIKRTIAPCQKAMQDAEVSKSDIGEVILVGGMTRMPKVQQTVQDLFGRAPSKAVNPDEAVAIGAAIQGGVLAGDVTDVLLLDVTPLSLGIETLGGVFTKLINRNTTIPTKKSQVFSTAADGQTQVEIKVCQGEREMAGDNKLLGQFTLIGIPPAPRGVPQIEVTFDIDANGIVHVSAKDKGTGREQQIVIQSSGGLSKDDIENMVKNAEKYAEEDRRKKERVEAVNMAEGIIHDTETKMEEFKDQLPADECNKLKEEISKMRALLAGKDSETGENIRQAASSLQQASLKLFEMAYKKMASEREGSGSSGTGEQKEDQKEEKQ
UniProt A1KFR2: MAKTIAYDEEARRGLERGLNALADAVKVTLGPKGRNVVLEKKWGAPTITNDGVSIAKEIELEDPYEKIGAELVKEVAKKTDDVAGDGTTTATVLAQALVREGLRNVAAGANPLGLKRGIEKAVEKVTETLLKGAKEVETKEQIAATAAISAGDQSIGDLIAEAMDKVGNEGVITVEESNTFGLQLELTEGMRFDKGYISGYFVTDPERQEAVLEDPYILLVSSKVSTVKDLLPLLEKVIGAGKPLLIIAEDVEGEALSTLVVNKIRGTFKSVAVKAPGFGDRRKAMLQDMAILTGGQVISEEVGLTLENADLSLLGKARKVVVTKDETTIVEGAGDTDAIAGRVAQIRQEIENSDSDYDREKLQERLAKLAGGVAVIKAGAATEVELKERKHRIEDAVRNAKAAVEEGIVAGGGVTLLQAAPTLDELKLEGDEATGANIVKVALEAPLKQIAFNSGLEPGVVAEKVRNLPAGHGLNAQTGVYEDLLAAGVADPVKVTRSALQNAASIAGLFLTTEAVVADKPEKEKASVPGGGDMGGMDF

Molecular target: mortalin, endogenous in BCG-infected RAW macrophages (mouse (endogenous in RAW 264.7)) (UniProt P38647)
Experiment: co-IP

Cpn60.2 of M. bovis BCG in infected macrophages (from UniProt A1KFR2 1-540)
binding: binds
